Measurements as given in US7858322B2, “Method of determining inhibition of binding to TRPM7 protein” (NoNo, Inc., priority 2003, dated 2010).
Part of at least one peptide drawing is inferred or uncertain, most often the ends. Residues, ends and D or L forms follow the SMILES beside them. *: point of attachment. Biotin = O=C1N[C@H]2[C@H](CS[C@H]2CCCCC(=O)*)N1

Tests used:
INADL d3 [1] = target: T1, INADL d3 (Homo sapiens, UniProt Q8NI35); experiment: G3 assay, binding of biotinylated peptide to GST-PDZ fusion; settings: G3 titration, INADL d3
T1 construct: made in house; host or cells: E. coli (DH5α, BL21 or JM109)
T1 sequence (Q8NI35 with tags, fused parts or gaps): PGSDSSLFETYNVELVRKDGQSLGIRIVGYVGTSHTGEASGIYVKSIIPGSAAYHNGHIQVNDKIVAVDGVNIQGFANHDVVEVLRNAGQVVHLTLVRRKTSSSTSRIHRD
Protocol: (§1) The G3 assay is identical to the G0 assay with the following exceptions. The peptides are typically present at 0.1 μM rather than 20 μM. The peptides are also pre-incubated with the HRP-streptavidin prior to adding to the assay plate. In the G0 assay, free peptide is incubated with the PDZ proteins prior to the addition of the HRP-streptavidin. Thus, for the G0 assay one can lose signal if the bound peptide dissociates from the PDZ protein prior to the addition of the HRP-streptavidin. In the G3 modified assay the HRP-streptavidin/peptide complex is added to the plate in one step, thus increasing the likelihood that all the bound peptide will be bound to HRP-streptavidin. The G3 modified assay increases the chance of observing weak interaactions.
(§2) Reagents and Supplies • Nunc MaxiSorp 96 well Immuno-plate, Nunc • PBS pH 7.4 (phosphate buffered saline, 8 g NaCl, 0.29 g KCl, 1.44 g Na2HPO4, 0.24 g KH2PO4, add H2O to 1 liter and pH 7.4; 0.2 μm filter) • Assay Buffer: 2% BSA in PBS (20 g of bovine serum albumin per liter PBS, fraction V, ICN Biomedicals, cat#IC15142983 • Goat anti-GST polyclonal Ab, stock 5 mg/ml, stored at 4° C., Amersham Pharmacia cat#27-4577-01 • Dilute 1:1000 in PBS, final concentration 5 μg/ml. • HRP-Streptavidin, 2.5 mg/2 ml stock stored at 4° C., Zymed cat#43-4323, dilute 1:2000 into Assay buffer, final concentration of 0.5 μg/ml • Wash Buffer, PBS • Biotinylated peptides (HPLC purified, stock solution stored in −20° C. freezer) • GST-PRISM proteins (stock stored at −80° C., after 1st thaw store in −10° C. freezer) • TMB (3,3′,5,5′, teramethylbensidine), tablets, Sigma cat.#T5525 • Per plate, dissolve 1 tablet in 1 ml DMSO, add 9 ml Citrate/Phosphate buffer pH 5.4 and 2 μL H2O2 • 0.18M H2SO4, Sigma cat.#S 1526 • 12-w multichannel pipettor & tips • 50 ml reagent reservoirs, Costar#4870 • 50, 15 ml polypropylene conical tubes • Costar Transtar 96 Costar #7605 • Transtar 96 Cartridge Costar #7610 • Molecular Devices microplate reader (450 & 650 nm filters) with SoftMax Pro software • When using reagents stored at or 4° C. or −20° C., remove & keep on ice
(§3) Protocol • 1. Coat plate with 100 μl of 5 μg/ml anti-GST, overnight at 4° C. • 2. Dump contents of plate & out tap dry on paper towels • 3. Block with 200 μl Assay Buffer for 2 hrs at room temperature • 4. Prepare proteins at 5 μg/ml in Assay Buffer • 5. Wash 3× with cold PBS (4° C.), avoiding letting the plates dry out • 6. Add proteins at 50 μl per well, incubate 1 to 2 hrs at 4° C. • 7. Prepare peptides to desired concentration in Assay Buffer • 8. Wash 3× with cold PBS (4° C.), avoiding letting the plates dry out • 9. Add HRP-Streptavidin/peptide complex [prepared by incubating for 20 minutes at room temperature HRP-Streptavidin (1:2000) with the desired biotin-peptide concentration for 20 minutes at room temperature] at 50 μl per well on ice • 10. Place at room temperature for exactly 30 minutes • 11. Promptly wash 5× with PBS at room temperature • 12. Add 100 μl/well TMB substrate (write time on plate) • 13. Incubate in dark at room temperature for a maximum of 30 minutes • 14. Read plate at 25 minutes (650 nm), optional • 15. Stop reaction with 100 μl of 0.18 M H2SO4, 30 minutes after adding TMB Take last reading at 450 nm soon after stopping reaction
(§4) The G3 assay was performed using 0.1 μM peptide representing 11 amino acids of Tat fused to the final 9 amino acids of TRPM7 ([…]; SEQ ID NO:258).
(§5) The G3 assay was performed on a subset of the PDZ domains as in Example II except that the concentration of peptide was 0.002 μM, […], 0.1 μM, 0.2 μM, 1 μM, and 2 μM.
(§6) to calculate the EC50 for the binding of the peptides to the PDZ domains.
(§7) FIGS. 10A and 10B show graphs of the titrations for the Peptide #1829 with ZO-1 d2 and for the Peptide #1839 with INADL d3.

ZO-1 d2 [2] = target: T2, ZO-1 d2 (Homo sapiens, UniProt Q07157, DEL264-264); experiment: as above; settings: G3 titration, ZO-1 d2
T2 construct: made in house; host or cells: E. coli (DH5α, BL21 or JM109)
T2 sequence (Q07157 with tags, fused parts or gaps DEL264-264): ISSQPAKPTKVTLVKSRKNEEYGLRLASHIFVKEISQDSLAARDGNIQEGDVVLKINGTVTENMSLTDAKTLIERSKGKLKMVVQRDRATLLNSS
Protocol: as §1, §2, §3, §4, §5, §6, §7

RIM2 d1 = target: T3, RIM2 d1 (Homo sapiens, UniProt Q9UQ26); experiment: G assays, titrations or binding assays of peptides; settings: peptide demonstrated to bind RIM2 d1 in G assays
T3 construct: made in house; host or cells: E. coli (DH5α, BL21 or JM109)
T3 sequence (Q9UQ26 632-757): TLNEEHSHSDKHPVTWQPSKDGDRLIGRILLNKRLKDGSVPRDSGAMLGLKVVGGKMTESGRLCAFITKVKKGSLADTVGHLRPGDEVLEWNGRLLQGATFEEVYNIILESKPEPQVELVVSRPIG

INADL d3 [3] = target: T1, INADL d3; experiment: G assays, titrations or binding assays of peptides; settings: peptide demonstrated to bind INADL d3 in G assays
ZO-1 d2 [4] = target: T2, ZO-1 d2; experiment: G assays, titrations or binding assays of peptides; settings: peptide demonstrated to bind ZO-1 d2 in G assays

| Compound | ODmax (450 nm) (INADL d3 [1]) | ODmax (450 nm) (ZO-1 d2 [2]) | POZ domain bound (RIM2 d1) | POZ domain bound (INADL d3 [3]) | POZ domain bound (ZO-1 d2 [4]) |
| --- | --- | --- | --- | --- | --- |
| CC(C)[C@H](NC(=O)[C@H](CCC(=O)O)NC(=O)[C@@H](NC(=O)[C@H](CCCCN)NC(=O)[C@H](CCCNC(=N)N)NC(=O)[C@H](CC(=O)O)NC(=O)[C@@H](NC(=O)[C@H](CCCNC(=N)N)NC(=O)[C@H](C)NC(=O)[C@H](CCCNC(=N)N)NC(=O)[C@H](CCCNC(=N)N)NC(=O)[C@H](CCCNC(=N)N)NC(=O)[C@H](CCC(N)=O)NC(=O)[C@H](CCCNC(=N)N)NC(=O)[C@H](CCCNC(=N)N)NC(=O)[C@H](CCCCN)NC(=O)[C@H](CCCCN)NC(=O)[C@H](CCCNC(=N)N)NC(=O)CNC(=O)[C@H](Cc1ccc(O)cc1)NC(=O)CCCC[C@@H]1SC[C@@H]2NC(=O)N[C@@H]21)[C@@H](C)O)C(C)C)C(=O)O [Peptide 1837] (Biotin-YGRKKRRQRRRARTDRKVEV-OH) | 0.37 | 1.80 | RIM2 D1 |  |  |
| CC[C@H](C)[C@H](NC(=O)[C@H](Cc1ccc(O)cc1)NC(=O)[C@H](CCCCN)NC(=O)[C@H](CCCNC(=N)N)NC(=O)[C@H](CC(=O)O)NC(=O)CNC(=O)[C@H](CCCNC(=N)N)NC(=O)[C@H](C)NC(=O)[C@H](CCCNC(=N)N)NC(=O)[C@H](CCCNC(=N)N)NC(=O)[C@H](CCCNC(=N)N)NC(=O)[C@H](CCC(N)=O)NC(=O)[C@H](CCCNC(=N)N)NC(=O)[C@H](CCCNC(=N)N)NC(=O)[C@H](CCCCN)NC(=O)[C@H](CCCCN)NC(=O)[C@H](CCCNC(=N)N)NC(=O)CNC(=O)[C@H](Cc1ccc(O)cc1)NC(=O)CCCC[C@@H]1SC[C@@H]2NC(=O)N[C@@H]21)C(=O)N[C@H](C(=O)O)C(C)C [Peptide 1838] (Biotin-YGRKKRRQRRRARGDRKYIV-OH) | 2.60 | 2.60 | RIM2 D1 | INADL D3 |  |
| CC[C@H](C)[C@H](NC(=O)[C@H](CCCNC(=N)N)NC(=O)[C@H](Cc1ccc(O)cc1)NC(=O)[C@H](CCCNC(=N)N)NC(=O)[C@H](CC(=O)O)NC(=O)CNC(=O)[C@H](CCCNC(=N)N)NC(=O)[C@H](C)NC(=O)[C@H](CCCNC(=N)N)NC(=O)[C@H](CCCNC(=N)N)NC(=O)[C@H](CCCNC(=N)N)NC(=O)[C@H](CCC(N)=O)NC(=O)[C@H](CCCNC(=N)N)NC(=O)[C@H](CCCNC(=N)N)NC(=O)[C@H](CCCCN)NC(=O)[C@H](CCCCN)NC(=O)[C@H](CCCNC(=N)N)NC(=O)CNC(=O)[C@H](Cc1ccc(O)cc1)NC(=O)CCCC[C@@H]1SC[C@@H]2NC(=O)N[C@@H]21)C(=O)N[C@H](C(=O)O)C(C)C [Peptide 1845] (Biotin-YGRKKRRQRRRARGDRYRIV-OH) | 2.20 | 2.30 | RIM2 D1 |  | ZO-1 D2 |
| CC(C)[C@H](NC(=O)[C@H](Cc1c[nH]c2ccccc12)NC(=O)[C@@H](NC(=O)[C@H](CCC(=O)O)NC(=O)[C@H](CCCNC(=N)N)NC(=O)[C@H](CCCNC(=N)N)NC(=O)CNC(=O)[C@H](CCCNC(=N)N)NC(=O)[C@H](C)NC(=O)[C@H](CCCNC(=N)N)NC(=O)[C@H](CCCNC(=N)N)NC(=O)[C@H](CCCNC(=N)N)NC(=O)[C@H](CCC(N)=O)NC(=O)[C@H](CCCNC(=N)N)NC(=O)[C@H](CCCNC(=N)N)NC(=O)[C@H](CCCCN)NC(=O)[C@H](CCCCN)NC(=O)[C@H](CCCNC(=N)N)NC(=O)CNC(=O)[C@H](Cc1ccc(O)cc1)NC(=O)CCCC[C@@H]1SC[C@@H]2NC(=O)N[C@@H]21)[C@@H](C)O)C(=O)O [Peptide 1854] (Biotin-YGRKKRRQRRRARGRRETWV-OH) | 2.10 | 2.80 | RIM2 D1 |  | ZO-1 D2 |
| CC[C@H](C)[C@H](NC(=O)[C@@H](NC(=O)[C@H](CCCNC(=N)N)NC(=O)[C@H](CC(=O)O)NC(=O)CNC(=O)[C@H](CCCNC(=N)N)NC(=O)[C@H](C)NC(=O)[C@H](CCCNC(=N)N)NC(=O)[C@H](CCCNC(=N)N)NC(=O)[C@H](CCCNC(=N)N)NC(=O)[C@H](CCC(N)=O)NC(=O)[C@H](CCCNC(=N)N)NC(=O)[C@H](CCCNC(=N)N)NC(=O)[C@H](CCCCN)NC(=O)[C@H](CCCCN)NC(=O)[C@H](CCCNC(=N)N)NC(=O)CNC(=O)[C@H](Cc1ccc(O)cc1)NC(=O)CCCC[C@@H]1SC[C@@H]2NC(=O)N[C@@H]21)[C@@H](C)O)C(=O)N[C@H](C(=O)N[C@@H](Cc1ccc(O)cc1)C(=O)O)[C@@H](C)CC [Peptide 1848] (Biotin-YGRKKRRQRRRARGDRTIIY-OH) | 1.20 | 2.20 | RIM2 D1 |  | ZO-1 D2 |
| CC(C)C[C@H](NC(=O)[C@H](CCCNC(=N)N)NC(=O)[C@@H](NC(=O)CNC(=O)[C@H](CCCNC(=N)N)NC(=O)[C@H](C)NC(=O)[C@H](CCCNC(=N)N)NC(=O)[C@H](CCCNC(=N)N)NC(=O)[C@H](CCCNC(=N)N)NC(=O)[C@H](CCC(N)=O)NC(=O)[C@H](CCCNC(=N)N)NC(=O)[C@H](CCCNC(=N)N)NC(=O)[C@H](CCCCN)NC(=O)[C@H](CCCCN)NC(=O)[C@H](CCCNC(=N)N)NC(=O)CNC(=O)[C@H](Cc1ccc(O)cc1)NC(=O)CCCC[C@@H]1SC[C@@H]2NC(=O)N[C@@H]21)[C@@H](C)O)C(=O)N[C@H](C(=O)N[C@@H](Cc1c[nH]c2ccccc12)C(=O)N[C@H](C(=O)O)C(C)C)C(C)C [Peptide 1844] (Biotin-YGRKKRRQRRRARGTRLVWV-OH) | 2.40 | 2.60 | RIM2 D1 |  | ZO-1 D2 |
| CC[C@H](C)[C@H](NC(=O)[C@@H](NC(=O)[C@H](CCCNC(=N)N)NC(=O)[C@H](CC(=O)O)NC(=O)[C@H](CO)NC(=O)[C@H](CCCNC(=N)N)NC(=O)[C@H](C)NC(=O)[C@H](CCCNC(=N)N)NC(=O)[C@H](CCCNC(=N)N)NC(=O)[C@H](CCCNC(=N)N)NC(=O)[C@H](CCC(N)=O)NC(=O)[C@H](CCCNC(=N)N)NC(=O)[C@H](CCCNC(=N)N)NC(=O)[C@H](CCCCN)NC(=O)[C@H](CCCCN)NC(=O)[C@H](CCCNC(=N)N)NC(=O)CNC(=O)[C@H](Cc1ccc(O)cc1)NC(=O)CCCC[C@@H]1SC[C@@H]2NC(=O)N[C@@H]21)[C@@H](C)O)C(=O)N[C@H](C(=O)N[C@@H](C)C(=O)O)[C@@H](C)CC [Peptide 1830] (Biotin-YGRKKRRQRRRARSDRTIIA-OH) | 1.20 | 1.80 | RIM2 D1 | INADL D3 | ZO-1 D2 |
